These are yes or no findings as the source states them, for the method shown. Binding seen in cells or lysates may run through a third protein. Some entries that bind do so weakly or less than the wild type.
Columns and labels:
[1] = biological target: cyclin-dependent kinase inhibitor p21 (human (endogenous in NARF2)) (UniProt P38936); assay: co-IP; NARF2 whole-cell lysates, cells with or without IPTG (p14ARF induction) for 24 hr; immunoprecipitated with anti-FMN2 or anti-p21 antibodies (normal rabbit IgG as control), precipitates analysed by western blot
[2] = biological target: Formin-2 (FMN2) (human (endogenous in NARF2)) (UniProt Q9NZ56); assay: as above

By UniProt entry, the sequences of proteins in these tests, tags left out.
UniProt P38936: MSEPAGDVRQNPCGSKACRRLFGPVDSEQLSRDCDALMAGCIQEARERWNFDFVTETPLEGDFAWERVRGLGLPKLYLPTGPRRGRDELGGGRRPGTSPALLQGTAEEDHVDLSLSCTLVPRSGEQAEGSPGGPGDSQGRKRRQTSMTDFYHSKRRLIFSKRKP
UniProt Q9NZ56: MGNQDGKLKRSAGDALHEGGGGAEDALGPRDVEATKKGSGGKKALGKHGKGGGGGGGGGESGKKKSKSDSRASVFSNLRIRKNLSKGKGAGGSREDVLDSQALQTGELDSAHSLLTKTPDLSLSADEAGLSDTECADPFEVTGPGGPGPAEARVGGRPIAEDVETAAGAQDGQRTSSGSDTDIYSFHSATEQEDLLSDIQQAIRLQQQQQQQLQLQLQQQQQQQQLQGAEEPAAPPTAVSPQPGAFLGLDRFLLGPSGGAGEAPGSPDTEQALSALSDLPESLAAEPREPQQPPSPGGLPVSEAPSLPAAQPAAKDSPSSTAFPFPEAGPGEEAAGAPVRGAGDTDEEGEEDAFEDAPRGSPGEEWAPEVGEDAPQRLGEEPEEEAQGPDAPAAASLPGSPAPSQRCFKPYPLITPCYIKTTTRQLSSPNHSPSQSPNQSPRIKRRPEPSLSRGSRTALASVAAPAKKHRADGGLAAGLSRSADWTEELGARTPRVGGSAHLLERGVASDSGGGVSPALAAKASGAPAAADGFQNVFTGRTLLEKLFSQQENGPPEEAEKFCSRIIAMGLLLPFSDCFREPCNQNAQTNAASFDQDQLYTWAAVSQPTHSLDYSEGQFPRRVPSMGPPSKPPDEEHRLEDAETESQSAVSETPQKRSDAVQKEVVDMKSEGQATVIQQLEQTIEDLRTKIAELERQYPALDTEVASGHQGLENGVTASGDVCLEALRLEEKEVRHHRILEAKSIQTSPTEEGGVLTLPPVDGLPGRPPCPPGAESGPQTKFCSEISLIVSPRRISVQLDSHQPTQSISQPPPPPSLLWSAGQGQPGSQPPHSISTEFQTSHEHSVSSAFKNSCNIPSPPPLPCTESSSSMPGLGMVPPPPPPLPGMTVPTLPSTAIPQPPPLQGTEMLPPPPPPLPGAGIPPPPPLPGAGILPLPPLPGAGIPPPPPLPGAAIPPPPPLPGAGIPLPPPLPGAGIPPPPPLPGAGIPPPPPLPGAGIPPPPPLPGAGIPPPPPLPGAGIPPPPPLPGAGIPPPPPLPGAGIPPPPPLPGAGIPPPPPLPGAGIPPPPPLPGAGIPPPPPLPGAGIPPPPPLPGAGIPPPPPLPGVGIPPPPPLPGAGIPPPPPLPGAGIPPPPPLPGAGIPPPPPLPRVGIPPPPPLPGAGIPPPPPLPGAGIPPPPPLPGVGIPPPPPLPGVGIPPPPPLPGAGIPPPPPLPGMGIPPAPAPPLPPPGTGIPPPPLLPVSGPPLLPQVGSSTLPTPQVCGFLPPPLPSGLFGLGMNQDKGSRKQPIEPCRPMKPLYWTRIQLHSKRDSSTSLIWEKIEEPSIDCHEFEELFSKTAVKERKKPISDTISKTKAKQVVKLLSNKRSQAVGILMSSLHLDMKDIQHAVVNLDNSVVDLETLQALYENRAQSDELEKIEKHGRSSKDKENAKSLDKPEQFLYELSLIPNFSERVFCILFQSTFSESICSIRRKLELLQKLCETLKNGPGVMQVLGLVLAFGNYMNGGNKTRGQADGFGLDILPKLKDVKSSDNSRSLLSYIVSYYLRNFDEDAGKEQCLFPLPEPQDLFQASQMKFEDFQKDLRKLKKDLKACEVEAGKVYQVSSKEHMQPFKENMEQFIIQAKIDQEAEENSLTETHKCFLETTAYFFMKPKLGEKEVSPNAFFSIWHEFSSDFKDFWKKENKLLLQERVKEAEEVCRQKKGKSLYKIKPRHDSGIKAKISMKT

## Formin-2 (FMN2) (from UniProt Q9NZ56 1-1722)
[1]
  binding: binds

## cyclin-dependent kinase inhibitor p21 (from UniProt P38936 1-164)
[2]
  binding: binds
